The target in test [1] is METTL3, C-terminal BirA* fusion (human) (UniProt Q86U44). Kind of test: proximity labelling; BioID: BirA*-fused bait induced with 200 ng/ml dox in stable 293T cells, 50 μM biotin for 24 h, streptavidin bead purification of biotinylated proteins, LC-MS/MS; hits filtered by Limma (>4-fold, adjusted P < 0.01) and SAINT (score >0.74) against BirA* and NLS-BirA* controls.
The target of test [2] is METTL3, N-terminal BirA* fusion (human) (UniProt Q86U44). The description is as above.
Test [3] addresses MAC-PCIF1 (HA-Strep II-BirA*-PCIF1) (human) (UniProt Q9H4Z3). Kind of test: affinity purification with mass spectrometry; Strep II-tagged bait captured on StrepTactinXT beads from 293T total lysate, 4 h at 4°C, with RNase inhibitor (-RNase A) or with 2 μg/ml RNase A; washes with 350 mM KCl; LC-MS/MS; against Strep II-eGFP control.
Test [4] shares this target. The test can be described thus: proximity labelling; BioID: BirA*-fused bait induced with 200 ng/ml dox in stable 293T cells, 50 μM biotin for 24 h, streptavidin bead purification of biotinylated proteins, LC-MS/MS; hits filtered by Limma (>4-fold, adjusted P < 0.01) and SAINT (score >0.74) against BirA* and NLS-BirA* controls.

Chains of the proteins cited; added tags and fusions are not shown.
UniProt Q86U44: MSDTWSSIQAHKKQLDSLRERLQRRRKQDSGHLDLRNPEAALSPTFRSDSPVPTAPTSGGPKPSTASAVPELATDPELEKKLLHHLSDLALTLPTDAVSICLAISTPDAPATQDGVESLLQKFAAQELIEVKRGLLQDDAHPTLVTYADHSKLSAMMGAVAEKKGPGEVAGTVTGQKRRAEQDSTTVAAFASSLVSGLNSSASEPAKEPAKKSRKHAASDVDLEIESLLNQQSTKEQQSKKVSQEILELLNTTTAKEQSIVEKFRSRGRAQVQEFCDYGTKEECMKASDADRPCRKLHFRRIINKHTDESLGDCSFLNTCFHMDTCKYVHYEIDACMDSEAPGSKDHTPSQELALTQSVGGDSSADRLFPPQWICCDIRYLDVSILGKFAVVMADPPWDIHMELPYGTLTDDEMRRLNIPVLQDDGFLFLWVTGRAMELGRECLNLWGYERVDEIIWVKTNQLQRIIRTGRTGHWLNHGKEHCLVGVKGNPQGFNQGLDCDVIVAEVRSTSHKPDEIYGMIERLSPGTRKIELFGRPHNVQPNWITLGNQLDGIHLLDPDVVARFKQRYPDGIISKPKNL
UniProt Q9H4Z3: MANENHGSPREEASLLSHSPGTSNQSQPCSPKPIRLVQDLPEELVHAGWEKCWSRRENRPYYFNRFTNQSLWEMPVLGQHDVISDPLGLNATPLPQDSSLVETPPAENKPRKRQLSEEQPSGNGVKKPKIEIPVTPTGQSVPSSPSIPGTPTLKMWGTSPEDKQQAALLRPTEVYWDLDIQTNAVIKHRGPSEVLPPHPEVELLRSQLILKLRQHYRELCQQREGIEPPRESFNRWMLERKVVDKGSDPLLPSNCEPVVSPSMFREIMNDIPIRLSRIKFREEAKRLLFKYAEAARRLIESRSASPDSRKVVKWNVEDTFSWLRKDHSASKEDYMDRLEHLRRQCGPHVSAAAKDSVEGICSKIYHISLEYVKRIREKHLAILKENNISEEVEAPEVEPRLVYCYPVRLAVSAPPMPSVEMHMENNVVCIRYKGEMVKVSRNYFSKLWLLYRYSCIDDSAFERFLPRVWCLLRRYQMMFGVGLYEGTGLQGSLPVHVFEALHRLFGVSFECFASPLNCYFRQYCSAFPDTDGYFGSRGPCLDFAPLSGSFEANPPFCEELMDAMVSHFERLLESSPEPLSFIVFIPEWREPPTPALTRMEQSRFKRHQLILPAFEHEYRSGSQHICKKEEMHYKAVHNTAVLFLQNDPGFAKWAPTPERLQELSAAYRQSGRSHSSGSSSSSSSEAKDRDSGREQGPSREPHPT

No constants are given. Whether binding was seen depends on the method and setting. Binding seen in cells or lysates may run through a third protein. A yes stands for co-enrichment or nearness to the bait. Other partners may have been found.

B1: HAKAI (protein, UniProt Q75N03 1-491)
chain: MDHTDNELQGTNSSGSLGGLDVRRRIPIKLISKQANKAKPAPRTQRTINRMPAKAPPGDEEGFDYNEEERYDCKGGELFANQRRFPGHLFWDFQINILGEKDDTPVHFCDKCGLPIKIYGRMIPCKHVFCYDCAILHEKKGDKMCPGCSDPVQRIEQCTRGSLFMCSIVQGCKRTYLSQRDLQAHINHRHMRAGKPVTRASLENVHPPIAPPPTEIPERFIMPPDKHHMSHIPPKQHIMMPPPPLQHVPHEHYNQPHEDIRAPPAELSMAPPPPRSVSQETFRISTRKHSNLITVPIQDDSNSGAREPPPPAPAPAHHHPEYQGQPVVSHPHHIMPPQQHYAPPPPPPPPISHPMPHPPQAAGTPHLVYSQAPPPPMTSAPPPITPPPGHIIAQMPPYMNHPPPGPPPPQHGGPPVTAPPPHHYNPNSLPQFTEDQGTLSPPFTQPGGMSPGIWPAPRGPPPPPRLQGPPSQTPLPGPHHPDQTRYRPYYQ
Take B1: the binding result in test [1] and in test [2] was “binds” each time.

B2: CRML (protein, UniProt Q96RY5 1-1269)
chain: MTVKLGDGGSGEDGLKKLGKRAADEESLEGEGAGGADAAEESSGTKRDEKTPRAGADGPPAPPGAPQAPSPPQGSPQDQHHFLRSSVRPQSKRPRKDPPSAVGSGNAGGSGPRGKGAEGGGSSSGNVSGVAPAAPAGGSRSSSRNLGSSGGEKEEGKKVRRQWESWSTEDKNTFFEGLYEHGKDFEAIQNNIALKYKKKGKPASMVKNKEQVRHFYYRTWHKITKYIDFDHVFSRGLKKSSQELYGLICYGELRKKIGGCMDDKNATKLNELIQVGATTVRYKGRNLRIKAPMCRALKKLCDPDGLSDEEDQKPVRLPLKVPIELQPRNNHAWARVQSLAQNPRLRMIVELHRKVSSLIEFLKQKWALHEVRVRKTLEERQLQDSCSAPMQEKVTLHLFPGENCTLTPLPGVARVVHSKAFCTVHWQEGGRCKQSAKDAHVLPPAQILGIQSGQGTARGQVKCPRSGAEGKGVGRPPPAADALQSSGESSPESAPGEGAALSLSSPDAPDRPPPRHQDTGPCLEKTPAEGRDSPTREPGALPCACGQLPDLEDELSLLDPLPRYLKSCQDLIVPEQCRCADTRPGSEQPPLGGAASPEVLAPVSKEAADLAPTGPSPRPGPGLLLDVCTKDLADAPAEELQEKGSPAGPPPSQGQPAARPPKEVPASRLAQQLREEGWNLQTSESLTLAEVYLMMGKPSKLQLEYDWLGPGRQDPRPGSLPTALHKQRLLSCLLKLISTEVNPKLALEANTISTASVRPAQEEQSMTPPGKVVTVSSRSPRCPRNQASLRSSKTFPPSSAPCSSGLRNPPRPLLVPGPSSTGSNDSDGGLFAVPTTLPPNSRHGKLFSPSKEAELTFRQHLNSISMQSDFFLPKPRKLRNRHLRKPLVVQRTLLPRPSENQSHNVCSFSILSNSSVTGRGSFRPIQSSLTKAALSRPIVPKVLPPQATSHLASAIDLAATSAGILSGNPLPALDTEGLSGISPLSSDEVTGAISGQDSTGTHQDGDTLPTVGGSDPFVSIPSRPEQEPVADSFQGSSVLSLSELPKAPLQNGLSIPLSSSESSSTRLSPPDVSALLDISLPGPPEDALSQGEPATHISDSIIEIAISSGQYGEGVPLSPAKLNGSDSSKSLPSPSSSPQPHWIASPTHDPQWYPSDSTDSSLSSLFASFISPEKSRKMLPTPIGTNSGTSLLGPSLLDGNSRDSFVSRSLADVAEVVDSQLVCMMNENSIDYISRFNDLAQELSIAEPGRREALFDGGGGGPAVSDLSQ
B2: the binding result in test [3] and in test [4] was “binds” throughout.

B3: RBM15 (protein, UniProt Q96T37 1-977)
chain: MRTAGRDPVPRRSPRWRRAVPLCETSAGRRVTQLRGDDLRRPATMKGKERSPVKAKRSRGGEDSTSRGERSKKLGGSGGSNGSSSGKTDSGGGSRRSLHLDKSSSRGGSREYDTGGGSSSSRLHSYSSPSTKNSSGGGESRSSSRGGGGESRSSGAASSAPGGGDGAEYKTLKISELGSQLSDEAVEDGLFHEFKRFGDVSVKISHLSGSGSGDERVAFVNFRRPEDARAAKHARGRLVLYDRPLKIEAVYVSRRRSRSPLDKDTYPPSASVVGASVGGHRHPPGGGGGQRSLSPGGAALGYRDYRLQQLALGRLPPPPPPPLPRDLERERDYPFYERVRPAYSLEPRVGAGAGAAPFREVDEISPEDDQRANRTLFLGNLDITVTESDLRRAFDRFGVITEVDIKRPSRGQTSTYGFLKFENLDMSHRAKLAMSGKIIIRNPIKIGYGKATPTTRLWVGGLGPWVPLAALAREFDRFGTIRTIDYRKGDSWAYIQYESLDAAHAAWTHMRGFPLGGPDRRLRVDFADTEHRYQQQYLQPLPLTHYELVTDAFGHRAPDPLRGARDRTPPLLYRDRDRDLYPDSDWVPPPPPVRERSTRTAATSVPAYEPLDSLDRRRDGWSLDRDRGDRDLPSSRDQPRKRRLPEESGGRHLDRSPESDRPRKRHCAPSPDRSPELSSSRDRYNSDNDRSSRLLLERPSPIRDRRGSLEKSQGDKRDRKNSASAERDRKHRTTAPTEGKSPLKKEDRSDGSAPSTSTASSKLKSPSQKQDGGTAPVASASPKLCLAWQGMLLLKNSNFPSNMHLLQGDLQVASSLLVEGSTGGKVAQLKITQRLRLDQPKLDEVTRRIKVAGPNGYAILLAVPGSSDSRSSSSSAASDTATSTQRPLRNLVSYLKQKQAAGVISLPVGGNKDKENTGVLHAFPPCEFSQQFLDSPAKALAKSEEDYLVMIIVRGFGFQIGVRYENKKRENLALTLL
With B3, the binding result in test [1] and in test [2] was “binds” in each case.

B4: SCAF8 (protein, UniProt Q9UPN6 1-1271)
chain: MEAVKTFNSELYSLNDYKPPISKAKMTQITKAAIKAIKFYKHVVQSVEKFIQKCKPEYKVPGLYVIDSIVRQSRHQFGQEKDVFAPRFSNNIISTFQNLYRCPGDDKSKIVRVLNLWQKNNVFKSEIIQPLLDMAAGIPPPVVTPVLASTTTAMSNTPGTPVTPVTPANVVQGLPDPWVSQITNTDTLAAVAQILQSPQGQQLQQLIQTLQIQQQKPQPSILQALDAGLVVQLQALTAQLTAAAAAANTLTPLEQGVSFNKKLMDRFDFGEDSEHSEEPKKEIPASQLSHVSESVNNSIFHQIAEQLQQQNLEHLRQQLLEQQQPQKATPQDSQEGTFGSEHSASPSQGSSQQHFLEPEVNLDDSIDIQQQDMDIDEGQDGVEEEVFEQEAKKVAVRSRSRTHSRSRSRSPRKRRSRSRSGSRKRKHRKRSRSRSRERKRKSSRSYSSERRAREREKERQKKGLPPIRSKTLSVCSTTLWVGQVDKKATQQDLTNLFEEFGQIESINMIPPRGCAYVCMVHRQDAFRALQKLSSGSYKIGSKVIKIAWALNKGVKTEYKQFWDVDLGVTYIPWEKVKVDDLEGFAEGGMIDQETVNTEWETVKSSEPVKETVQTTQSPTPVEKETVVTTQAEVFPPPVAMLQIPVAPAVPTVSLVPPAFPVSMPVPPPGFSPIPPPPFLRASFNPSQPPPGFMPPPVPPPVVPPPTIPPVVPTSLVQPSLSMTPETVKDVGFGSLVIPGGSVASNLATSALPAGNVFNAPTKQAEPEEKVPHLIDHQISSGENTRSVIPNDISSNAAILGGQPPNVTSNSGILGVQRPNVSSNSEILGVRPSNVSSSSGIIAAQPPNILNNSGILGIQPPSVSNSSGLLGVLPPNIPNNSGLVGVQPPNVPNTPGLLGTQPPAGPQNLPPLSIPNQRMPTMPMLDIRPGLIPQAPGPRFPLIQPGIPPQRGIPPPSVLDSALHPPPRGPFPPGDIFSQPERPFLAPGRQSVDNVTNPEKRIPLGNDNIQQEGDRDYRFPPIETRESISRPPPVDVRDVVGRPIDPREGPGRPPLDGRDHFGRPPVDIRENLVRPGIDHLGRRDHFGFNPEKPWGHRGDFDEREHRVLPVYGGPKGLHEERGRFRSGNYRFDPRSGPWNRGFGQEVHRDFDDRRRPWERQRDRDDRDFDFCREMNGNRLGRDRIQNTWVPPPHARVFDYFEGATSQRKGDNVPQVNGENTERHAQPPPIPVQNDPELYEKLTSSNEINKEKSDTVADIESEPVVESTETEGT
On to B4, for which the binding result in test [4] was “binds”.

These data come from publication PMC8565353.
